Data source: PubChem BioAssay AID1259308 (NCATS, 2017)
In all, the deposit lists about 59,000 reagents; below is a part drawn at random. About 1,510 of all reagents (2.6%) were called active. 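Calls use total luciferase alone and ignore viability, so some active siRNAs may act by altering cell number.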 Reagents against one gene are numbered here. Further read-outs or replicates are left out here.

Screen: 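Knock-downs that increase output of a recombinant reporter protein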 (primary screen)
System: human HEK293 embryonic kidney cells stably expressing firefly luciferase (HEK-CMV-Luc2-Hygro)
Reagent: single siRNA against human genes, 0.8 pmol siRNA per well
Timing: 72 h
Measurement: 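Reporter luminescence and viable-cell signal on separate replicate plates, given as percent of non-targeting control and median/MAD z-scores, plus per-cell luciferase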
Scale: total luciferase, z-score and total luciferase, % of control: higher = more reporter protein produced; luciferase per cell, z-score: higher = more reporter output per viable cell
Hit rule: 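Active when the median/MAD z-score for overall luciferase is greater than 3; a gene was taken forward for validation with new siRNAs if at least two of its three siRNAs passed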
Calls: active = raised luciferase; inactive = no rise

gene | reagent no. | total luciferase, z-score | total luciferase, % of control | luciferase per cell, z-score | outcome
OR4K13 | 1 | 0.132 | 84.5 | 0.126 | inactive
OR4K13 | 2 | -0.864 | 64.7 | -1.32 | inactive
OR4K13 | 3 | -0.618 | 69.6 | -0.635 | inactive
MKKS | 1 | -0.39 | 74.1 | -0.191 | inactive
MKKS | 2 | -0.0422 | 81 | 0.321 | inactive
MKKS | 3 | -0.164 | 78.6 | -0.148 | inactive
MDH1B | 1 | 0.666 | 95.1 | 0.682 | inactive
MDH1B | 2 | -0.781 | 66.4 | 0.324 | inactive
MDH1B | 3 | -0.481 | 72.3 | -0.559 | inactive
PDCD6P1 | 1 | 0.283 | 87.5 | 0.822 | inactive
PDCD6P1 | 2 | -0.716 | 67.6 | -0.0324 | inactive
PDCD6P1 | 3 | -2.25 | 37.2 | -1.91 | inactive
ZNF620 | 1 | -0.601 | 69.9 | -0.402 | inactive
ZNF620 | 2 | -0.748 | 67 | -0.949 | inactive
ZNF620 | 3 | 0.381 | 89.5 | -0.353 | inactive
TPTE2P2 | 1 | 0.83 | 98.4 | 0.293 | inactive
TPTE2P2 | 2 | 1.97 | 121 | 2.83 | inactive
TPTE2P2 | 3 | 0.232 | 86.5 | 0.537 | inactive
CENPN | 1 | -2.07 | 40.8 | -1.85 | inactive
CENPN | 2 | 1.48 | 111 | 0.863 | inactive
CENPN | 3 | -0.0467 | 81 | 1.48 | inactive
TIGD1 | 1 | 0.709 | 96 | 1.2 | inactive
TIGD1 | 2 | -1.01 | 61.8 | -1.42 | inactive
TIGD1 | 3 | -1.02 | 61.7 | -1.18 | inactive
PUF60 | 1 | 0.607 | 94 | 0.427 | inactive
PUF60 | 2 | 0.187 | 85.6 | 0.406 | inactive
PUF60 | 3 | 0.919 | 100 | 1.1 | inactive
HCLS1 | 1 | 1.58 | 113 | 1.28 | inactive
HCLS1 | 2 | -0.683 | 68.3 | -0.48 | inactive
HCLS1 | 3 | -0.232 | 77.3 | -0.215 | inactive
SLC12A4 | 1 | -0.335 | 75.2 | -0.573 | inactive
SLC12A4 | 2 | 0.0203 | 82.3 | -0.0782 | inactive
SLC12A4 | 3 | 1.69 | 115 | 0.53 | inactive
LOC401123 (retired record) | 1 | 1.71 | 116 | 1.29 | inactive
LOC401123 (retired record) | 2 | -0.298 | 76 | 0.956 | inactive
LOC401123 (retired record) | 3 | 0.627 | 94.4 | -0.414 | inactive
CLEC2L | 1 | 2.22 | 126 | 1.29 | inactive
CLEC2L | 2 | -0.666 | 68.6 | 0.0239 | inactive
CLEC2L | 3 | 0.525 | 92.3 | 0.45 | inactive
TRIO | 1 | -0.453 | 72.9 | -0.48 | inactive
TRIO | 2 | -1.14 | 59.2 | -0.195 | inactive
TRIO | 3 | 0.469 | 91.2 | -0.0228 | inactive
TNFSF8 | 1 | 2.02 | 122 | 2.41 | inactive
TNFSF8 | 2 | 0.993 | 102 | 0.445 | inactive
TNFSF8 | 3 | -0.675 | 68.5 | 0.455 | inactive
BMS1 | 1 | -1.79 | 46.3 | -1.84 | inactive
BMS1 | 2 | -1.58 | 50.4 | -1.68 | inactive
BMS1 | 3 | -0.814 | 65.7 | -0.769 | inactive

Continued (6 carried over from the part before).
gene | reagent no. | total luciferase, z-score | total luciferase, % of control | luciferase per cell, z-score | outcome
TNFSF8 | 1 | 2.02 | 122 | 2.41 | inactive
TNFSF8 | 2 | 0.993 | 102 | 0.445 | inactive
TNFSF8 | 3 | -0.675 | 68.5 | 0.455 | inactive
BMS1 | 1 | -1.79 | 46.3 | -1.84 | inactive
BMS1 | 2 | -1.58 | 50.4 | -1.68 | inactive
BMS1 | 3 | -0.814 | 65.7 | -0.769 | inactive
RELA | 1 | 0.446 | 90.8 | 0.113 | inactive
RELA | 2 | -0.707 | 67.8 | -1.06 | inactive
RELA | 3 | -0.0193 | 81.5 | -0.395 | inactive
SGPP1 | 1 | -0.257 | 76.8 | -0.595 | inactive
SGPP1 | 2 | -0.194 | 78 | -0.887 | inactive
SGPP1 | 3 | 1.9 | 120 | 1.85 | inactive
PGAP1 | 1 | -2.1 | 40 | -1.63 | inactive
PGAP1 | 2 | -0.77 | 66.6 | -0.768 | inactive
PGAP1 | 3 | 1.21 | 106 | 1.55 | inactive
OR2A12 | 1 | 1.22 | 106 | 1.28 | inactive
OR2A12 | 2 | 0.217 | 86.2 | -0.222 | inactive
OR2A12 | 3 | -0.358 | 74.8 | -0.178 | inactive
CLSPN | 1 | -1.06 | 60.8 | -0.31 | inactive
CLSPN | 2 | 1.25 | 107 | 0.928 | inactive
CLSPN | 3 | -0.888 | 64.2 | -1.47 | inactive
FBLIM1 | 1 | -1.26 | 56.8 | -0.577 | inactive
FBLIM1 | 2 | 0.595 | 93.7 | 0.29 | inactive
FBLIM1 | 3 | 2.28 | 127 | 1.48 | inactive
PRAG1 | 1 | 0.0788 | 83.5 | -0.141 | inactive
PRAG1 | 2 | 0.971 | 101 | 0.82 | inactive
PRAG1 | 3 | -1.6 | 50.1 | -1.63 | inactive
CFHR3 | 1 | -0.632 | 69.3 | -1.36 | inactive
CFHR3 | 2 | -0.0467 | 81 | 0.0639 | inactive
CFHR3 | 3 | -1.15 | 59.1 | -0.739 | inactive
RNF130 | 1 | 0.386 | 89.6 | -0.066 | inactive
RNF130 | 2 | 1.04 | 103 | 0.587 | inactive
RNF130 | 3 | -0.423 | 73.5 | -0.426 | inactive
